{"sequences": {"note": "By UniProt entry, the sequences of proteins in these tests, tags left out. Where a name states a change or a piece, a line headed by the entry shows the natural chain unless it says otherwise.", "UniProt O64645": "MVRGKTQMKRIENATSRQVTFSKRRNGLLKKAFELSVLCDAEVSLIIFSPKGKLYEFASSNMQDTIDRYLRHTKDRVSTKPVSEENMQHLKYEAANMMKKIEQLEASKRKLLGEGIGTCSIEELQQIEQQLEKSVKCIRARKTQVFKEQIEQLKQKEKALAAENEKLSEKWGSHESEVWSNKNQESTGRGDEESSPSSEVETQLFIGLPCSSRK"}, "source": "patent US20160138036A1", "molecular_target": "recombinant maltose-binding protein-SOC1 (MBP-SOC1) fusion (Arabidopsis thaliana) (UniProt O64645)", "test": "in vitro pull-down: MBP-SOC1 on amylose resin, 35S-labeled in vitro translated polypeptide, autoradiography", "note": "No constants are given. Whether binding was seen depends on the method and setting. Binding seen in cells or lysates may run through a third protein. Some entries that bind do so weakly or less than the wild type.", "data": [{"substance": "SOC1 (SUPPRESSOR OF OVEREXPRESSOR OF CONSTANS 1) transcription factor (from UniProt O64645 1-214)", "values": [{"measurement": "binding", "value": "binds"}]}]}
